Source: PubChem BioAssay AID2662 (National Center for Advancing Translational Sciences (NCATS), 2010)
Hit rate of the full screen: of about 290,000 compounds, about 110 (0.038%) were called active. Inconclusive results, whose numbers are uncertain, are shown with a selection of clear calls. Calls follow the shape of the dose curve; as a rule, active = well fitted inhibition curve with a large enough effect in the polarisation, with a control signal flat (not every such curve was filed as active); inconclusive = small, poorly fitted or top-dose-only effect, or effect the other way, or a change in a side signal; inactive = no such curve, though single readings can be large or run the other way; the % refers to the polarisation. A potency beside an inconclusive call is a rough fit, not a confirmed value. A note “side channel” means that the fit belongs to a control or component signal, not to the main read-out.

Sequences of proteins named here, by UniProt entry; tags and fusion partners are left off.
UniProt Q03164, whole entry, looked up: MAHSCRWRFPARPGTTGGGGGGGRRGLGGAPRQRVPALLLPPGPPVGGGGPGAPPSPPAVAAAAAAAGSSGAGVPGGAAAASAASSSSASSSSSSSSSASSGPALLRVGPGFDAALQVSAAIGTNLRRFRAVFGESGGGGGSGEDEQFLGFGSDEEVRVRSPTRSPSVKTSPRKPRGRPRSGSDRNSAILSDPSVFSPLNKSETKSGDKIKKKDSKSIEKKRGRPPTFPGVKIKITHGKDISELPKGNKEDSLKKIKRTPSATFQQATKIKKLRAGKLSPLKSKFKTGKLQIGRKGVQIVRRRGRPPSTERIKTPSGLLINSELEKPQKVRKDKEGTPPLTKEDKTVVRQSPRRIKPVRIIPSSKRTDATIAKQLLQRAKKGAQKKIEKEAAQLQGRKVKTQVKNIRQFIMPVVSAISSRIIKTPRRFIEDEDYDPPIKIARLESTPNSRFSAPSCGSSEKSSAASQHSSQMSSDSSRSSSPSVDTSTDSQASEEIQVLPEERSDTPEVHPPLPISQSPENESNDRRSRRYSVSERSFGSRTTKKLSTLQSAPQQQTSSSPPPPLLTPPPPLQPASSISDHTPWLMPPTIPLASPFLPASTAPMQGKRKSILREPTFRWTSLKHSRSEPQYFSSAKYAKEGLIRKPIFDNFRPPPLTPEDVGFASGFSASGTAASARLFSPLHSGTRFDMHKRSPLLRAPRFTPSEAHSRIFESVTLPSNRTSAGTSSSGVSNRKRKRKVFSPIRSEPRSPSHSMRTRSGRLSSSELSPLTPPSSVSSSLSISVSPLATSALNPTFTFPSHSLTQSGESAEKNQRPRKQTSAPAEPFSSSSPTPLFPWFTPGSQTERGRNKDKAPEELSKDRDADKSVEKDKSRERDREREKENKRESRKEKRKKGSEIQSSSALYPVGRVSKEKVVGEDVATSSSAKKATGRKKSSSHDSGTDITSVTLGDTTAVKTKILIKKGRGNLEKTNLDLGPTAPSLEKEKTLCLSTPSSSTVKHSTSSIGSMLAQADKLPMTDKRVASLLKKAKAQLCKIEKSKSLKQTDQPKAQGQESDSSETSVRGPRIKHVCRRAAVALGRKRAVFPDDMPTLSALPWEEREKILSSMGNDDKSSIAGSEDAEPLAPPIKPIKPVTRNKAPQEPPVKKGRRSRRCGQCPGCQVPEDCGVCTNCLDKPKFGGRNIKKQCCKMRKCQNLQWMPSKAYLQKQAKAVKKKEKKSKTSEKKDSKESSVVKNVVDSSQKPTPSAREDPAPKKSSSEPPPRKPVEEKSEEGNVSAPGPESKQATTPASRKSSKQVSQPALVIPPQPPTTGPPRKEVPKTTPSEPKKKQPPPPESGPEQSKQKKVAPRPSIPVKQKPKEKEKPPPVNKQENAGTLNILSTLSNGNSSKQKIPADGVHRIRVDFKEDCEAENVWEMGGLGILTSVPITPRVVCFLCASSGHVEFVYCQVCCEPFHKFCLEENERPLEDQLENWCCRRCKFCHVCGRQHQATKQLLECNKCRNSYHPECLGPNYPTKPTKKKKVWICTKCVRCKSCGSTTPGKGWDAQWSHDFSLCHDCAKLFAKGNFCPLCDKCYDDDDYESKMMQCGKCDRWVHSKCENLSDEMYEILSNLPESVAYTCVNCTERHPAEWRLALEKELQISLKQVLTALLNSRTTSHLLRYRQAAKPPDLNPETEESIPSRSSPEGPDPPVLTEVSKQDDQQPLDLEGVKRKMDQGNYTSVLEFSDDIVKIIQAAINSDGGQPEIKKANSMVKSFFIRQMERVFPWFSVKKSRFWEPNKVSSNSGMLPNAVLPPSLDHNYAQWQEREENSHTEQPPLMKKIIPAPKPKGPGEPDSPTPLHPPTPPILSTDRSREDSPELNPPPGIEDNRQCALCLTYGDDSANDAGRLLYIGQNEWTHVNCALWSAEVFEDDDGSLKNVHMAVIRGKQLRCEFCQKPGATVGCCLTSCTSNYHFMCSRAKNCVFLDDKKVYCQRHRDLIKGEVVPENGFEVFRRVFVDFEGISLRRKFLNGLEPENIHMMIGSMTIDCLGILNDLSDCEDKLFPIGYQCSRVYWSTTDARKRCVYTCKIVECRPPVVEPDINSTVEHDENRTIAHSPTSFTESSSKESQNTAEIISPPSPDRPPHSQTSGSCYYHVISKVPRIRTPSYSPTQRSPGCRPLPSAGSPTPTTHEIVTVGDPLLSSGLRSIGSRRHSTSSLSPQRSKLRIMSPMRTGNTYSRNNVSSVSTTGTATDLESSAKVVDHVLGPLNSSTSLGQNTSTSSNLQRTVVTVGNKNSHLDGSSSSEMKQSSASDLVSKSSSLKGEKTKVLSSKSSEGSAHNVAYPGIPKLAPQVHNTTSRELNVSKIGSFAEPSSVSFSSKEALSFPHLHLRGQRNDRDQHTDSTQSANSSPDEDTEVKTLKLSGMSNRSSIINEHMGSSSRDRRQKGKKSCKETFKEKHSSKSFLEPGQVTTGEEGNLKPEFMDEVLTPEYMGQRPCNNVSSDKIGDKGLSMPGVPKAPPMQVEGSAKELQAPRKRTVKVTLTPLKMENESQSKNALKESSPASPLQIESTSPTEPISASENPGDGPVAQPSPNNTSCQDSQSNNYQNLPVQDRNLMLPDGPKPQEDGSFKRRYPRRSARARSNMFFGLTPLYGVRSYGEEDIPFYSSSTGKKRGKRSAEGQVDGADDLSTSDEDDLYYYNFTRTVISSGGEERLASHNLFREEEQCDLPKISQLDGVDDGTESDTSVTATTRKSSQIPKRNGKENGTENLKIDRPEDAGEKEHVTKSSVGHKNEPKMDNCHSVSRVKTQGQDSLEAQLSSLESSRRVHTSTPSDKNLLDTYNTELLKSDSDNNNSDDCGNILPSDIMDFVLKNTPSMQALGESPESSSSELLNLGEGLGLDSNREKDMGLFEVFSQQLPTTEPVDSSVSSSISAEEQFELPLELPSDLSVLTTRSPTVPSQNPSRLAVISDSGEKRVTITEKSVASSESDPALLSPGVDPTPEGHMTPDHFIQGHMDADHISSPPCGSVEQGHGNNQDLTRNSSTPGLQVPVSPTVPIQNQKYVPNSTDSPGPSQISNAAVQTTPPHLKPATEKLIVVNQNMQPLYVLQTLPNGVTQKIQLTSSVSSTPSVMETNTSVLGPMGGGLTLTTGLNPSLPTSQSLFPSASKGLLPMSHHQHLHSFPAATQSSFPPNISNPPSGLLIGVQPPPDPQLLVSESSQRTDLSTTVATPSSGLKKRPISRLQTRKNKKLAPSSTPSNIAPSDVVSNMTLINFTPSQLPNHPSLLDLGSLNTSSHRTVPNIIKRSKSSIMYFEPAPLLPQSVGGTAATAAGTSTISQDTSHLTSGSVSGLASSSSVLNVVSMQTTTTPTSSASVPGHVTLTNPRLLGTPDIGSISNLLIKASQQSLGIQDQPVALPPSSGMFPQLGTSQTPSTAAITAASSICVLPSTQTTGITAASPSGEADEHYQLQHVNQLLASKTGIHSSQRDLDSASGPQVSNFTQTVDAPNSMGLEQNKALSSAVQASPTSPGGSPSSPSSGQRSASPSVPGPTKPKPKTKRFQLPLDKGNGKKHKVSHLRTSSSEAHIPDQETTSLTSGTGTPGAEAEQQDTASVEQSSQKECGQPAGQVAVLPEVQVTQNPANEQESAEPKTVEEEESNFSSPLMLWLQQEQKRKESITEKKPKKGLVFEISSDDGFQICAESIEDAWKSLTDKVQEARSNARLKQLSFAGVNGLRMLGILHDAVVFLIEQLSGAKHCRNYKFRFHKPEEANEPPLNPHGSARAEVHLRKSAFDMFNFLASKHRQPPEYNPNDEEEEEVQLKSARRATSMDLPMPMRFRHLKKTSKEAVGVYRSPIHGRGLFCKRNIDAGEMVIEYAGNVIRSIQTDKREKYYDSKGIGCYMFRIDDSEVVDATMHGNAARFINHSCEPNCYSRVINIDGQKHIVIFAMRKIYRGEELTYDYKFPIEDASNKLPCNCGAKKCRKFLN

Target: Histone-lysine N-methyltransferase 2A (Homo sapiens) (UniProt Q03164)
Experiment: qHTS Fluorescence Polarization Assay for Inhibitors of MLL CXXC domain - DNA interaction
Conditions: MLL-CXXC / FITC-HOXA9 DNA fluorescence polarization; activity change, negative = inhibition: at 115 µM (top of the series)
Procedure, shortened: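 Fluorescence polarization: 7 uM MLL-CXXC (stock) preincubated 5 min with compounds, then 50 nM fluorescein-HOX-A9 DNA (stock) added; 30 min ambient. Buffer 50 mM Tris-HCl pH 7.5, 50 mM NaCl, 1 mM DTT, 0.05% BSA.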
Potency is read from the fitted curve at half-maximal effect.

Structure (SMILES)	activity change, negative = inhibition	Potency
O=C(Cn1cnc2sc(-c3ccccc3)cc2c1=O)NCc1ccco1	inactive: 6.33%	–
CCOC(=O)C1CCN(C(=O)c2cn(C)c(=O)c3cc(OC)c(OC)cc23)CC1	–	inconclusive: 89.1 µM [fluorescent, side channel, single point]
COc1ccc(/C=C2\SC(=S)N(CCC(=O)Nc3ccc(C(=O)O)cc3)C2=O)cc1	–	inconclusive: 11.2 µM [inhibitor, full curve]
COc1ccc(C(=O)c2ccccc2Cl)cc1	–	inconclusive: 63.1 µM [fluorescent, side channel, single point]
Cc1ccc(S(=O)(=O)N2CCCCC2)cc1C(=O)N1CCN(c2ccccn2)CC1	inactive: -1.6%	–
CC[n+]1c(/C=C/N(C)c2ccccc2)n(-c2ccccc2)c2ccc(-c3nc4ccccc4s3)cc21	–	inconclusive: 11.2 µM [quencher, side channel, full curve]
O=C1CCCN1CCCNC(=S)Nc1ccccc1	inactive: -5.46%	–
Cc1cc(=O)n(C(C)(C)C)c(=O)n1Cc1ccccc1	–	inconclusive: 63.1 µM [fluorescent, side channel, single point]
CCN(CC)CCCN(Cc1cc2cc(OC)ccc2[nH]c1=O)C(=O)Nc1ccccc1	inactive: 2.34%	–
O=c1cc(CN2CCCc3ccccc32)nc2sccn12	–	inconclusive: 31.6 µM [fluorescent, side channel, partial curve]
COC(=O)c1cc(NC(=O)c2ccccc2)c(=O)oc1/C=C/Nc1ccc(Oc2ccccc2)cc1	–	inconclusive: 22.4 µM [fluorescent, side channel, partial curve]
Cc1c(CCOC(=O)CC23CC4CC(CC(C4)C2)C3)sc[n+]1Cc1ccccc1	–	inconclusive: 31.6 µM [quencher, partial curve]
COCCCNC(=O)c1cc(=O)n(Cc2ccc(Cl)cc2)c2ccccc12	inactive: 0.619%	–
Cc1ccc(C)c(Cn2c(=O)n(CCC(=O)NCc3ccco3)c(=O)c3sccc32)c1	–	inconclusive: 22.4 µM [fluorescent, side channel, partial curve]
CC(=O)c1sc(-c2ccc(Cl)cc2)nc1C	inactive: -7.78%	–
O=C(NCc1ccccn1)Nc1cccc(F)c1	–	inconclusive: 15.8 µM [fluorescent, side channel, single point]
C/C(=N\NC(=O)C(NC(=O)c1ccccc1)C(C)C)c1ccccc1 (configuration not stated)	–	inconclusive: 89.1 µM [fluorescent, side channel, single point]
COc1ccc(/C(O)=C2/C(=O)C(=O)N(c3ncccn3)C2c2ccc(F)cc2)cc1 (configuration not stated)	–	inconclusive: 31.6 µM [inhibitor, single point]
CCN1CCN(C(=O)c2ccc(CN(c3ccccc3)S(=O)(=O)c3ccccc3)cc2)CC1	–	inconclusive: 1.12 µM [fluorescent, side channel, partial curve, poor fit]

Some of these compounds in order of number of heavy atoms, largest number first.
Structure (SMILES)	activity change, negative = inhibition	Potency
CC[n+]1c(/C=C/N(C)c2ccccc2)n(-c2ccccc2)c2ccc(-c3nc4ccccc4s3)cc21	–	inconclusive: 11.2 µM [quencher, side channel, full curve]
Cc1ccc(S(=O)(=O)N2CCCCC2)cc1C(=O)N1CCN(c2ccccn2)CC1	inactive: -1.6%	–
O=C(Cn1cnc2sc(-c3ccccc3)cc2c1=O)NCc1ccco1	inactive: 6.33%	–

Following part:

Structure (SMILES)	activity change, negative = inhibition	Potency
Cc1ccc2nc(N(CCCN(C)C)C(=O)c3ccc(S(=O)(=O)N4CCCCCC4)cc3)sc2c1	–	inconclusive: 10 µM [fluorescent, side channel, single point]
C#CCOCCOCCOCCNc1nc(N2CCN(C(=O)[C@H](CCCCN)n3cc(CCCC)nn3)CC2)nc(N2CCN(C(=O)[C@H](Cc3ccc(O)cc3)n3cc(CCO)nn3)CC2)n1	–	inconclusive: 22.4 µM [quencher, side channel, partial curve]
Cc1cccc(NC(=O)c2ccc(NCCc3ccccc3)c([N+](=O)[O-])c2)c1	inactive: 22%	–
CCc1nnc(NS(=O)(=O)c2ccc(NC(=O)c3cc(Cl)ccc3[N+](=O)[O-])cc2)s1	–	inconclusive: 20 µM [inhibitor, partial curve]
Cc1ccc(C(=O)CCC(=O)O)cc1	–	inconclusive: 39.8 µM [fluorescent, side channel, single point]
O=c1c(/C=C(\O)c2ccc(F)cc2)nc2ccccc2n1-c1ccccc1	–	inconclusive: 10 µM [fluorescent, side channel, full curve]
COc1ncnc2c1NC1=C(S2)C(=NCCC(=O)O)CC(C)(C)C1	–	inconclusive: 35.5 µM [fluorescent, side channel, partial curve]
COc1ccc(C2=NN(C(=O)CSc3nc4ccccc4s3)C(c3ccc(OC)cc3)C2)cc1 (configuration not stated)	–	inconclusive: 14.1 µM [inhibitor, single point]
Cc1ccc(Cn2nc(C)cc2C(=O)Nc2ccccc2Cl)cc1	–	inconclusive: 12.6 µM [fluorescent, side channel, single point]
O=[N+]([O-])c1cccc(-c2cc3ccccc3[nH]2)c1	–	inconclusive: 31.6 µM [quencher, side channel, single point]
Cc1cc(Cl)ccc1NC(=S)N1CCN(Cc2ccccc2)CC1	–	inconclusive: 35.5 µM [quencher, side channel, partial curve, poor fit]
CN(C)Cc1c(C(=O)N/N=C/c2ccc(OCc3c(F)cccc3Cl)cc2)nnn1-c1nonc1N	inactive: 17.1%	–
O=C(CN1CCCC1)NC(c1ccccc1)c1ccccc1	–	inconclusive: 89.1 µM [inhibitor, single point]
COc1ccc(CCNc2nc(-c3cccnc3)nc3ccccc23)cc1OC	inactive: -7.32%	–
CN1C2CCC1CC(NC(=O)c1cccc(C(F)(F)F)c1)C2 (configuration not stated)	–	inconclusive: 39.8 µM [fluorescent, side channel, partial curve]
O=C(OCc1nc2scc(-c3ccccc3)c2c(=O)[nH]1)c1cc([N+](=O)[O-])ccc1Cl	–	inconclusive: 11.2 µM [quencher, side channel, full curve]
CCN(CC)c1ccc2cc(C(=O)Nc3ccccn3)c(=O)oc2c1	–	inconclusive: 28.2 µM [fluorescent, side channel, partial curve]
